The structures appear in SMILES notation. The list is a part of this screen's results and no random one: it gathers some chemical classes. Not every dose and run of a compound is shown. T/C gives the treated animals as a percentage of the vehicle group. Some entries give survivors of the animals treated and no T/C: the source holds a T/C of zero for them, seemingly a mark for toxic or unscored doses. Some survivor counts are full or nearly so, which does not show that the dose was tolerated: the source hardly ever lists a survival T/C far under the control, and the zero likely stands for such cases as well. Survivors were counted at the toxicity check, usually on the fifth day, unless a day is given; later deaths do not show. Schedules are NCI's codes, taken here to give the interval after Q, in days (D) or hours (H), and the number of doses after X. Some schedule codes hold Z or #, which are not explained here. For survival time, the PubChem record calls one and a half times the control and up active, and a quarter to a half above the control has no call in these data; cut-offs in other NCI protocols can differ. Some entries hold several experiments; their values stand side by side, smallest first. Some T/C values are marked as having no survivor count here; that says nothing about deaths at the dose. Some T/C values carry the count of animals alive at the toxicity check (mostly the fifth day); where neither a count nor a note follows, no animal had died by that day.

T/C and survivor count data for 9 compounds are collected here from PubChem BioAssay AID256 (DTP/NCI, 2004).

The subject of this assay is CD2F1 mice, L1210 leukemia ip, survival T/C. The experiment in a line: NCI In Vivo Anticancer Drug Screen. Data for tumor model L1210 Leukemia (intraperitoneal) in CD2F1 (CDF1) mice. The settings on record: higher T/C = longer survival. A digest of the protocol:
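Mice carrying a transplanted tumor received test compound or vehicle alone. The value is the measurement in the treated group divided by that in the vehicle-treated control group.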

[1] abbreviates: T/C endpoint: mean survival time, dose: 15.62 mg/kg/injection, schedule: Q01DX001 (ip), vehicle: DMSO.
Setting [2] is: T/C endpoint: mean survival time, dose: 62.5 mg/kg/injection, schedule: Q01DX001 (ip), vehicle: DMSO.
[3] abbreviates: T/C endpoint: mean survival time, dose: 125.0 mg/kg/injection, schedule: Q01DX001 (ip), vehicle: DMSO.
Setting [4] is: T/C endpoint: mean survival time, dose: 250.0 mg/kg/injection, schedule: Q01DX001 (ip), vehicle: DMSO.
[5] abbreviates: T/C endpoint: mean survival time, dose: 500.0 mg/kg/injection, schedule: Q01DX001 (ip), vehicle: DMSO.
Setting [6] is: T/C endpoint: mean survival time, dose: 500.0 mg/kg/injection, schedule: Q01DX001 (ip), vehicle: distilled water + Tween-80.

As to `CCOC(=O)C(CCSC)NC(=O)OCCNCCCl` (centres undefined), the T/C (T/C endpoint: mean survival time, dose: 25.0 mg/kg/injection, schedule: Q04DX003 (ip), vehicle: saline) is 105 % of control; the T/C (T/C endpoint: mean survival time, dose: 40.0 mg/kg/injection, schedule: Q01DX Z (ip), vehicle: saline) is 94 % of control; the T/C (T/C endpoint: mean survival time, dose: 50.0 mg/kg/injection, schedule: Q04DX003 (ip), vehicle: saline) is 125 % of control; the T/C (T/C endpoint: mean survival time, dose: 52.0 mg/kg/injection, schedule: Q01DX001 (ip), vehicle: saline) was 106 % of control; the T/C (T/C endpoint: mean survival time, dose: 78.0 mg/kg/injection, schedule: Q01DX001 (ip), vehicle: saline) is 106 % of control; the T/C (T/C endpoint: mean survival time, dose: 80.0 mg/kg/injection, schedule: Q01DX Z (ip), vehicle: saline) is 105 % of control. Further, the T/C was 121 % of control (T/C endpoint: mean survival time, dose: 100.0 mg/kg/injection, schedule: Q04DX003 (ip), vehicle: saline); 104 % of control (T/C endpoint: mean survival time, dose: 117.0 mg/kg/injection, schedule: Q01DX001 (ip), vehicle: saline); 111 % of control (T/C endpoint: mean survival time, dose: 160.0 mg/kg/injection, schedule: Q01DX Z (ip), vehicle: saline); 128 % of control (T/C endpoint: mean survival time, dose: 176.0 mg/kg/injection, schedule: Q01DX001 (ip), vehicle: saline); 120 % of control (T/C endpoint: mean survival time, dose: 200.0 mg/kg/injection, schedule: Q04DX003 (ip), vehicle: saline); 124 % of control (T/C endpoint: mean survival time, dose: 264.0 mg/kg/injection, schedule: Q01DX001 (ip), vehicle: saline). Also, the T/C is, setting by setting: (T/C endpoint: mean survival time, dose: 320.0 mg/kg/injection, schedule: Q01DX Z (ip), vehicle: saline) 89 % of control [5 of 6 alive]; (T/C endpoint: mean survival time, dose: 400.0 mg/kg/injection, schedule: Q01DX001 (ip), vehicle: saline) 131 % of control; (T/C endpoint: mean survival time, dose: 600.0 mg/kg/injection, schedule: Q01DX001 (ip), vehicle: saline) 141 % of control [5 of 6 alive]. Also, the survivor count (T/C endpoint: mean survival time, dose: 176.0 mg/kg/injection, schedule: Q04DX003 (ip), vehicle: saline) was 6 of 6; the survivor count (T/C endpoint: mean survival time, dose: 264.0 mg/kg/injection, schedule: Q04DX003 (ip), vehicle: saline) is 4 of 6; the survivor count (T/C endpoint: mean survival time, dose: 400.0 mg/kg/injection, schedule: Q04DX003 (ip), vehicle: saline) is 0 of 6; the survivor count (T/C endpoint: mean survival time, dose: 600.0 mg/kg/injection, schedule: Q04DX003 (ip), vehicle: saline) is on record as 0 of 6; the survivor count (T/C endpoint: mean survival time, dose: 640.0 mg/kg/injection, schedule: Q01DX Z (ip), vehicle: saline) is recorded as 0 of 6.

In the case of `CC(=O)C(C)COP(N)(=O)N(CCCl)CCCl` (centres undefined), the T/C by setting is: under setting [1], 106 % of control; (T/C endpoint: mean survival time, dose: 31.3 mg/kg/injection, schedule: Q01DX001 (ip), vehicle: DMSO) 103 % of control; under setting [2], 106 % of control; under setting [3], 113 % of control; under setting [4], 125 % of control; under setting [5], 132 % of control.

For `Cc1ccc(P(=O)(Cl)Cl)cc1`, the T/C is, setting by setting: (T/C endpoint: mean survival time, dose: 25.0 mg/kg/injection, schedule: Q04DX003 (ip), vehicle: saline with Tween-80) 98 % of control; (T/C endpoint: mean survival time, dose: 50.0 mg/kg/injection, schedule: Q04DX003 (ip), vehicle: saline with Tween-80) 92 % of control; (T/C endpoint: mean survival time, dose: 100.0 mg/kg/injection, schedule: Q04DX003 (ip), vehicle: saline with Tween-80) 87 % of control.

For `C[C@@H]1C[C@H](C)OP(=O)(N(CCCl)CCCl)O1` (some centres undefined), the T/C reads like this: (T/C endpoint: mean survival time, dose: 15.6 mg/kg/injection, schedule: Q01DX001 (ip), vehicle: distilled water + Tween-80, evaluated on day 30) 113 % of control; (T/C endpoint: mean survival time, dose: 15.6 mg/kg/injection, schedule: Q01DX001 (ip), vehicle: distilled water + Tween-80, evaluated on day 45) 94 % of control; (T/C endpoint: mean survival time, dose: 31.3 mg/kg/injection, schedule: Q01DX001 (ip), vehicle: distilled water + Tween-80, evaluated on day 30) 125 % of control; (T/C endpoint: mean survival time, dose: 31.3 mg/kg/injection, schedule: Q01DX001 (ip), vehicle: distilled water + Tween-80, evaluated on day 45) 100 % of control; (T/C endpoint: mean survival time, dose: 62.5 mg/kg/injection, schedule: Q01DX001 (ip), vehicle: distilled water + Tween-80, evaluated on day 30) 116 % of control; (T/C endpoint: mean survival time, dose: 62.5 mg/kg/injection, schedule: Q01DX001 (ip), vehicle: distilled water + Tween-80, evaluated on day 45) 107 % of control. Further, the T/C runs as follows: (T/C endpoint: mean survival time, dose: 125.0 mg/kg/injection, schedule: Q01DX001 (ip), vehicle: distilled water + Tween-80, evaluated on day 30) 137 % of control; (T/C endpoint: mean survival time, dose: 125.0 mg/kg/injection, schedule: Q01DX001 (ip), vehicle: distilled water + Tween-80, evaluated on day 45) 125 % of control; (T/C endpoint: mean survival time, dose: 250.0 mg/kg/injection, schedule: Q01DX001 (ip), vehicle: distilled water + Tween-80, evaluated on day 30) 134 % of control [5 of 6 alive]; (T/C endpoint: mean survival time, dose: 250.0 mg/kg/injection, schedule: Q01DX001 (ip), vehicle: distilled water + Tween-80, evaluated on day 45) 131 % of control; under setting [6], 120 % of control [5 of 6 alive]. Besides, under setting [6], the survivor count was 5 of 6.

Turning to `CCC(O)(C(=O)OCC1=CC[N+]2([O-])CC[C@@H](OC(=O)Nc3ccccc3)C12)c1ccc(Cl)cc1` (some centres undefined), the T/C runs as follows: (T/C endpoint: median survival time, dose: 6.25 mg/kg/injection, schedule: Q01DX005 (ip), vehicle: saline with Tween-80) 104 % of control; (T/C endpoint: median survival time, dose: 12.5 mg/kg/injection, schedule: Q01DX005 (ip), vehicle: saline with Tween-80) 105 % of control; (T/C endpoint: median survival time, dose: 25.0 mg/kg/injection, schedule: Q01DX005 (ip), vehicle: saline with Tween-80) 120 % of control; (T/C endpoint: median survival time, dose: 50.0 mg/kg/injection, schedule: Q01DX005 (ip), vehicle: saline with Tween-80) 113 % of control; (T/C endpoint: median survival time, dose: 100.0 mg/kg/injection, schedule: Q01DX005 (ip), vehicle: saline with Tween-80) 112 % of control.

On to `O=CCC1CNP(=O)(N(CCCl)CCCl)O1` (centres undefined), for which the T/C runs as follows: under setting [1], 97 % of control; (T/C endpoint: mean survival time, dose: 31.25 mg/kg/injection, schedule: Q01DX001 (ip), vehicle: DMSO) 101 % of control; under setting [2], 97 % of control; under setting [3], 90 % of control; under setting [4], 87 % of control; under setting [5], 101 % of control.

Turning to `Cc1ccc([N+](=O)[O-])cc1NC(=O)NNc1ccc([N+](=O)[O-])cc1[N+](=O)[O-]`, the survivor count (T/C endpoint: mean survival time, dose: 100.0 mg/kg/injection, schedule: Q01DX009 (ip), vehicle: saline with Tween-80) was 6 of 6. For the same compound, the T/C is 91 % of control (T/C endpoint: mean survival time, dose: 200.0 mg/kg/injection, schedule: Q01DX009 (ip), vehicle: saline with Tween-80) and 94 % of control [5 of 6 alive] (T/C endpoint: mean survival time, dose: 400.0 mg/kg/injection, schedule: Q01DX009 (ip), vehicle: saline with Tween-80).

`CCCC(C)NCCO.O=[N+]([O-])c1cc([N+](=O)[O-])c(O)c([N+](=O)[O-])c1`: the T/C is, setting by setting: (T/C endpoint: mean survival time, dose: 75.0 mg/kg/injection, schedule: Q01DX001 (ip), vehicle: other) 98 % of control [survivor count not shown]; (T/C endpoint: mean survival time, dose: 150.0 mg/kg/injection, schedule: Q01DX001 (ip), vehicle: other) 96 % of control [survivor count not shown].

On to `CCOC(=O)C1COP(=O)(N(CCCl)CCCl)N1` (centres undefined), for which the T/C is 99 % of control (T/C endpoint: mean survival time, dose: 62.5 mg/kg/injection, schedule: Q01DX001 (ip), vehicle: other); 99 % of control (T/C endpoint: mean survival time, dose: 125.0 mg/kg/injection, schedule: Q01DX001 (ip), vehicle: other); 105 % of control (T/C endpoint: mean survival time, dose: 220.0 mg/kg/injection, schedule: Q01DX001 (ip), vehicle: other); 106 % of control (T/C endpoint: mean survival time, dose: 250.0 mg/kg/injection, schedule: Q01DX001 (ip), vehicle: other); 123 % of control (T/C endpoint: mean survival time, dose: 330.0 mg/kg/injection, schedule: Q01DX001 (ip), vehicle: other); 121 and 124 % of control (T/C endpoint: mean survival time, dose: 500.0 mg/kg/injection, schedule: Q01DX001 (ip), vehicle: other). The T/C (T/C endpoint: mean survival time, dose: 750.0 mg/kg/injection, schedule: Q01DX001 (ip), vehicle: other) was 129 % of control.
